This is one part of the list.
What was measured:
Assay in all cases: glycan array binding signal (z-score within array); higher = stronger binding
Settings in all cases: glycan notation: IUPAC condensed, linker removed
[1] = target: Fuc(a1-2)Gal
Procedure, shortened: (§1)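 The Consortium for Functional Glycomics database supplied 3228 glycan arrays, of which those lacking an available protein sequence were dropped. The binding signal, a within-array Z-score, was averaged across arrays of the same protein sequence and across linkers. Negative scores can be read as non-binding.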

[2] = target: Fuc(a1-2)Gal(b1-3)GalNAc
Procedure, shortened: as §1

[3] = target: Fuc(a1-2)Gal(b1-3)GalNAc(a1-3)[Fuc(a1-2)]Gal(b1-4)Glc
Procedure, shortened: as §1

[4] = target: Fuc(a1-2)Gal(b1-3)GalNAc(a1-3)[Fuc(a1-2)]Gal(b1-4)GlcNAc
Procedure, shortened: as §1

[5] = target: Fuc(a1-2)Gal(b1-3)GalNAc(b1-3)Gal
Procedure, shortened: as §1

[6] = target: Fuc(a1-2)Gal(b1-3)GalNAc(b1-3)Gal(a1-4)Gal(b1-4)Glc
Procedure, shortened: as §1

[7] = target: Fuc(a1-2)Gal(b1-3)GalNAc(b1-4)[Neu5Ac(a2-3)]Gal(b1-4)Glc
Procedure, shortened: as §1

[8] = target: Fuc(a1-2)Gal(b1-3)GlcNAc
Procedure, shortened: as §1

[9] = target: Fuc(a1-2)Gal(b1-3)GlcNAc(b1-2)Man(a1-3)[Fuc(a1-2)Gal(b1-3)GlcNAc(b1-2)Man(a1-6)]Man(b1-4)GlcNAc(b1-4)GlcNAc
Procedure, shortened: as §1

[10] = target: Fuc(a1-2)Gal(b1-3)GlcNAc(b1-2)Man(a1-3)[Fuc(a1-2)Gal(b1-3)GlcNAc(b1-2)Man(a1-6)]Man(b1-4)GlcNAc(b1-4)[Fuc(a1-6)]GlcNAc
Procedure, shortened: as §1

[11] = target: Fuc(a1-2)Gal(b1-3)GlcNAc(b1-3)Gal(b1-4)Glc
Procedure, shortened: as §1

[12] = target: Fuc(a1-2)Gal(b1-3)GlcNAc(b1-3)GalNAc
Procedure, shortened: as §1

[13] = target: Fuc(a1-2)Gal(b1-3)GlcNAc(b1-3)[Fuc(a1-2)Gal(b1-3)GlcNAc(b1-6)]GalNAc
Procedure, shortened: as §1

[14] = target: Fuc(a1-2)Gal(b1-3)GlcNAc(b1-3)[Gal(b1-4)GlcNAc(b1-6)]Gal(b1-4)Glc
Procedure, shortened: as §1

[15] = target: Fuc(a1-2)Gal(b1-3)GlcNAc(b1-3)[Neu5Ac(a2-6)Gal(b1-4)GlcNAc(b1-6)]Gal(b1-4)Glc
Procedure, shortened: as §1

[16] = target: Fuc(a1-2)Gal(b1-3)GlcNAc6S
Procedure, shortened: as §1

[17] = target: Fuc(a1-2)Gal(b1-3)[Fuc(a1-4)]GlcNAc
Procedure, shortened: as §1

[18] = target: Fuc(a1-2)Gal(b1-3)[Fuc(a1-4)]GlcNAc(b1-2)Man(a1-3)[Fuc(a1-2)Gal(b1-3)[Fuc(a1-4)]GlcNAc(b1-2)Man(a1-3)]Man(b1-4)GlcNAc(b1-4)GlcNAc
Procedure, shortened: as §1

[19] = target: Fuc(a1-2)Gal(b1-3)[Fuc(a1-4)]GlcNAc(b1-2)Man(a1-3)[Fuc(a1-2)Gal(b1-3)[Fuc(a1-4)]GlcNAc(b1-2)Man(a1-6)]Man(b1-4)GlcNAc(b1-4)[Fuc(a1-6)]GlcNAc(b1-4)[Fuc(a1-6)]GlcNAc
Procedure, shortened: as §1

[20] = target: Fuc(a1-2)Gal(b1-3)[Fuc(a1-4)]GlcNAc(b1-3)[Fuc(a1-3)[Gal(b1-4)]GlcNAc(b1-6)]Gal(b1-4)Glc
Procedure, shortened: as §1

[21] = target: Fuc(a1-2)Gal(b1-3)[Fuc(a1-4)]GlcNAc(b1-3)[Gal(b1-4)GlcNAc(b1-6)]Gal(b1-4)Glc
Procedure, shortened: as §1

[22] = target: Fuc(a1-2)Gal(b1-4)Glc
Procedure, shortened: as §1

[23] = target: Fuc(a1-2)Gal(b1-4)Glc6S
Procedure, shortened: as §1

[24] = target: Fuc(a1-2)Gal(b1-4)GlcNAc
Procedure, shortened: as §1

[25] = target: Fuc(a1-2)Gal(b1-4)GlcNAc(b1-2)Man
Procedure, shortened: as §1

[26] = target: Fuc(a1-2)Gal(b1-4)GlcNAc(b1-2)Man(a1-3)[Fuc(a1-2)Gal(b1-4)GlcNAc(b1-2)Man(a1-6)]Man(b1-4)GlcNAc(b1-4)GlcNAc
Procedure, shortened: as §1

[27] = target: Fuc(a1-2)Gal(b1-4)GlcNAc(b1-2)Man(a1-3)[Fuc(a1-2)Gal(b1-4)GlcNAc(b1-2)Man(a1-6)]Man(b1-4)GlcNAc(b1-4)[Fuc(a1-6)]GlcNAc
Procedure, shortened: as §1

[28] = target: Fuc(a1-2)Gal(b1-4)GlcNAc(b1-2)[Fuc(a1-2)Gal(b1-4)GlcNAc(b1-4)]Man(a1-3)[Fuc(a1-2)Gal(b1-4)GlcNAc(b1-2)Man(a1-6)]Man(b1-4)GlcNAc(b1-4)GlcNAc
Procedure, shortened: as §1

[29] = target: Fuc(a1-2)Gal(b1-4)GlcNAc(b1-3)Gal(b1-4)GlcNAc
Procedure, shortened: as §1

[30] = target: Fuc(a1-2)Gal(b1-4)GlcNAc(b1-3)Gal(b1-4)GlcNAc(b1-2)Man(a1-3)[Fuc(a1-2)Gal(b1-4)GlcNAc(b1-3)Gal(b1-4)GlcNAc(b1-2)Man(a1-6)]Man(b1-4)GlcNAc(b1-4)GlcNAc
Procedure, shortened: as §1

[31] = target: Fuc(a1-2)Gal(b1-4)GlcNAc(b1-3)Gal(b1-4)GlcNAc(b1-3)Gal(b1-4)GlcNAc
Procedure, shortened: as §1

[32] = target: Fuc(a1-2)Gal(b1-4)GlcNAc(b1-3)GalNAc
Procedure, shortened: as §1

[33] = target: Fuc(a1-2)Gal(b1-4)GlcNAc(b1-3)[Fuc(a1-2)Gal(b1-4)GlcNAc(b1-6)]GalNAc
Procedure, shortened: as §1

[34] = target: Fuc(a1-2)Gal(b1-4)GlcNAc(b1-3)[Fuc(a1-3)[Gal(b1-4)]GlcNAc(b1-6)]Gal(b1-4)Glc
Procedure, shortened: as §1

[35] = target: Fuc(a1-2)Gal(b1-4)GlcNAc(b1-6)GalNAc
Procedure, shortened: as §1

[36] = target: Fuc(a1-2)Gal(b1-4)GlcNAc6S
Procedure, shortened: as §1

[37] = target: Fuc(a1-2)Gal(b1-4)[Fuc(a1-3)]GlcNAc
Procedure, shortened: as §1

B1: EUL D1A first (Oryza sativa) (protein)
chain: MFGFGHHHNQAPAAPSDPNQIFKIFCRANENYCLTVRDSAVVLAPVNPKDEHQHWFKDMRFSTKVKDGEGMPAFALVNKATGLAVKHSLGQSHPVKLVPFNPEYEDASVLWTESKDVGKGFRCIRMVNNTRLNLDAFHGDKDHGGVRDGTTVVLWEWCKGDNQSWKILPWGPEAHSSSPGAATILEQKLISEEDLNSAVDHHHHHH
B1 was tested, and the “glycan array binding signal (z-score)” value [1] was -0.803, the “glycan array binding signal (z-score)” value [2] was -0.658 and the “glycan array binding signal (z-score)” value [3] was -1.18. For the same binder, the “glycan array binding signal (z-score)” value [4] was -0.14, the “glycan array binding signal (z-score)” value [5] was -0.944 and the “glycan array binding signal (z-score)” value [6] was 2.66. For the same binder, the “glycan array binding signal (z-score)” value [7] was 0.02, the “glycan array binding signal (z-score)” value [8] was -0.301 and the “glycan array binding signal (z-score)” value [9] was 0.636. For the same binder, the “glycan array binding signal (z-score)” value [10] was -0.245, the “glycan array binding signal (z-score)” value [11] was 0.15 and the “glycan array binding signal (z-score)” value [12] was -0.893. The “glycan array binding signal (z-score)” value [13] was -1.12, the “glycan array binding signal (z-score)” value [14] was -0.085 and the “glycan array binding signal (z-score)” value [15] was 0.072. The “glycan array binding signal (z-score)” value [16] was 3.74, the “glycan array binding signal (z-score)” value [17] was -0.887 and the “glycan array binding signal (z-score)” value [18] was 0.243. For the same binder, the “glycan array binding signal (z-score)” value [19] was 1.44, the “glycan array binding signal (z-score)” value [20] was -0.062 and the “glycan array binding signal (z-score)” value [21] was 1.7. For the same binder, the “glycan array binding signal (z-score)” value [22] was 0.54, the “glycan array binding signal (z-score)” value [23] was 1.57 and the “glycan array binding signal (z-score)” value [24] was -0.369. For the same binder, the “glycan array binding signal (z-score)” value [25] was -1.03, the “glycan array binding signal (z-score)” value [26] was 1.43 and the “glycan array binding signal (z-score)” value [27] was 1.89. The “glycan array binding signal (z-score)” value [28] was -0.106, the “glycan array binding signal (z-score)” value [29] was 1.11 and the “glycan array binding signal (z-score)” value [30] was 0.227. The “glycan array binding signal (z-score)” value [31] was -0.125, the “glycan array binding signal (z-score)” value [32] was -0.43 and the “glycan array binding signal (z-score)” value [33] was 0.609. For the same binder, the “glycan array binding signal (z-score)” value [34] was 2.74, the “glycan array binding signal (z-score)” value [35] was 0.018 and the “glycan array binding signal (z-score)” value [36] was -0.32. The “glycan array binding signal (z-score)” value [37] was -0.572.
